Experimental data reported in PMC4947123.
Results are given in words; binding and its absence hold for the method and conditions named. Binding seen in cells or lysates may run through a third protein. Some entries that bind do so weakly or less than the wild type.

Amino acid sequences for entries named in this document (tags omitted). A change or cut given only in a name is not applied to a line headed by its entry.
UniProt P56959: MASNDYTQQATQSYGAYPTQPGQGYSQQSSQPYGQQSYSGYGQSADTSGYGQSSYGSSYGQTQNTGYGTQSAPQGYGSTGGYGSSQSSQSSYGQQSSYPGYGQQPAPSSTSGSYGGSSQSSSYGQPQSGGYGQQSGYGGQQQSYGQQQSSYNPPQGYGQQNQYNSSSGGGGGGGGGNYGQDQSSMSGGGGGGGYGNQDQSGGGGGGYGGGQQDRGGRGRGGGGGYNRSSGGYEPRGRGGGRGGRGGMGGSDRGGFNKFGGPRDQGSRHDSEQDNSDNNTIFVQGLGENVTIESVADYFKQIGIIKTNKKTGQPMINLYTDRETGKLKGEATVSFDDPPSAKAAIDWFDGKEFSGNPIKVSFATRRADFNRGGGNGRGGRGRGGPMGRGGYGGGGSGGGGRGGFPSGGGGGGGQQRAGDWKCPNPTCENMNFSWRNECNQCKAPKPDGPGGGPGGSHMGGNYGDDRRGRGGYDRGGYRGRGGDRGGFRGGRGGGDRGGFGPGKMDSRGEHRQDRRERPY
UniProt O70133: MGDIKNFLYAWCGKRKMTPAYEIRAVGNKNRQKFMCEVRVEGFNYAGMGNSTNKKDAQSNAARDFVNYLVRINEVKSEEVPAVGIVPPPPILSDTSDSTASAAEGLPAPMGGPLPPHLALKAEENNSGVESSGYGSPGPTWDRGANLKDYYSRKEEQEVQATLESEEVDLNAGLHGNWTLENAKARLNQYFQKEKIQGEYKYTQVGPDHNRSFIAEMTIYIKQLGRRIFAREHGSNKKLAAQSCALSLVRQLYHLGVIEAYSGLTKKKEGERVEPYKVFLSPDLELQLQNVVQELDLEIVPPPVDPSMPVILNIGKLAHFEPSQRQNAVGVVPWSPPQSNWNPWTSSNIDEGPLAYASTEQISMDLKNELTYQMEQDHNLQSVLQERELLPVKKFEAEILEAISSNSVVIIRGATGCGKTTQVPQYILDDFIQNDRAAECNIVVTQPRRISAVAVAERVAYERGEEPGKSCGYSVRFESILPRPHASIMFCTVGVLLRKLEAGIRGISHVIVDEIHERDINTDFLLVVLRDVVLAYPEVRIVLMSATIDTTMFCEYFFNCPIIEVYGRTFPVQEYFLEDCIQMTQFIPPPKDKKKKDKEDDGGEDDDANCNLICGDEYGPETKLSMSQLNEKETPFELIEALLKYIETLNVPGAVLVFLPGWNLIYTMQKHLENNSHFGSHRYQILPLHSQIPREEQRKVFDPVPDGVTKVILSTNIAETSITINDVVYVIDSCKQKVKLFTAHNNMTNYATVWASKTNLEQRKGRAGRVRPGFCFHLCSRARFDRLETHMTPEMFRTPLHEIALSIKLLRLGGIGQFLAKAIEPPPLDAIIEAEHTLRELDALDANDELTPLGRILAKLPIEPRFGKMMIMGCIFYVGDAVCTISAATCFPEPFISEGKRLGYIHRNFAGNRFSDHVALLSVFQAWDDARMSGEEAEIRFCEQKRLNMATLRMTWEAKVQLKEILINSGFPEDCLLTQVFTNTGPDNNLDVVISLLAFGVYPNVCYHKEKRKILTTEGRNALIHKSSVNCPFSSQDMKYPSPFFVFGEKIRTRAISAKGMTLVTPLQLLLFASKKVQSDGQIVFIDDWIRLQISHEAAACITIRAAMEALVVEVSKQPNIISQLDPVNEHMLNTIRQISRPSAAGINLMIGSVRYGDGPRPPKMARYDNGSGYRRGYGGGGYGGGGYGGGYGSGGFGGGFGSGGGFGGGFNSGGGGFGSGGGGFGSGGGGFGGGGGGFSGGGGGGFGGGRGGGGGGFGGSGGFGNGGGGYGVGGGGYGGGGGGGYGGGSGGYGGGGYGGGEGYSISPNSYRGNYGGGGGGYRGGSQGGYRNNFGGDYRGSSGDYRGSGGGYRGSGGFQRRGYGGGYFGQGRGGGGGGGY
UniProt Q61701: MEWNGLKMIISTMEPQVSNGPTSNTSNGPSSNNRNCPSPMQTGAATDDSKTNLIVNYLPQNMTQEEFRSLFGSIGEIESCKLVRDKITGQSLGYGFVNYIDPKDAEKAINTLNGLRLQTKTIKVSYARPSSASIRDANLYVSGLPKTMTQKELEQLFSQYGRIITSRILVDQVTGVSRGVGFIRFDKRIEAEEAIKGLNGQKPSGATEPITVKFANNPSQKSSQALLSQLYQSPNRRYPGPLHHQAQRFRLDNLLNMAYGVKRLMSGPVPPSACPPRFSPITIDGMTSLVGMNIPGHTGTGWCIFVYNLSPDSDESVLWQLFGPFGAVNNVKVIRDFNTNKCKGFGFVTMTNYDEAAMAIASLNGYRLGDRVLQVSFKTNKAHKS
UniProt Q6PHQ9: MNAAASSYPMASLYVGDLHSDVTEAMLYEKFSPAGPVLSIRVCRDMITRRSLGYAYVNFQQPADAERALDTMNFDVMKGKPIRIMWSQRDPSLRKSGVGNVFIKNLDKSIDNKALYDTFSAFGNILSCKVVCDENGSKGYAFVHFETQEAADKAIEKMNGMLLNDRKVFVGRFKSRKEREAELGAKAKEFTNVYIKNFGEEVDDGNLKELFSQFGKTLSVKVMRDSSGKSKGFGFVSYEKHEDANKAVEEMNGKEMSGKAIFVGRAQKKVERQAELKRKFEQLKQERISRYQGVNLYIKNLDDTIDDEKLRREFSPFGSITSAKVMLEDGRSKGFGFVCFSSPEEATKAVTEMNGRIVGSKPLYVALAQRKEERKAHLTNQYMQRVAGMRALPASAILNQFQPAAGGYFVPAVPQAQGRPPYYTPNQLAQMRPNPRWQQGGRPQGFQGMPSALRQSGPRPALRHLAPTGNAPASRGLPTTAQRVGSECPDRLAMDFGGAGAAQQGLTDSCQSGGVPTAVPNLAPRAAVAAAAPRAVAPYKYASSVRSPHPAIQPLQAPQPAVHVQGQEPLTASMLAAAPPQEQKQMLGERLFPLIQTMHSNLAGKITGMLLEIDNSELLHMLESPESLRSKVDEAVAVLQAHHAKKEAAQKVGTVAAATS
UniProt Q9EPU0: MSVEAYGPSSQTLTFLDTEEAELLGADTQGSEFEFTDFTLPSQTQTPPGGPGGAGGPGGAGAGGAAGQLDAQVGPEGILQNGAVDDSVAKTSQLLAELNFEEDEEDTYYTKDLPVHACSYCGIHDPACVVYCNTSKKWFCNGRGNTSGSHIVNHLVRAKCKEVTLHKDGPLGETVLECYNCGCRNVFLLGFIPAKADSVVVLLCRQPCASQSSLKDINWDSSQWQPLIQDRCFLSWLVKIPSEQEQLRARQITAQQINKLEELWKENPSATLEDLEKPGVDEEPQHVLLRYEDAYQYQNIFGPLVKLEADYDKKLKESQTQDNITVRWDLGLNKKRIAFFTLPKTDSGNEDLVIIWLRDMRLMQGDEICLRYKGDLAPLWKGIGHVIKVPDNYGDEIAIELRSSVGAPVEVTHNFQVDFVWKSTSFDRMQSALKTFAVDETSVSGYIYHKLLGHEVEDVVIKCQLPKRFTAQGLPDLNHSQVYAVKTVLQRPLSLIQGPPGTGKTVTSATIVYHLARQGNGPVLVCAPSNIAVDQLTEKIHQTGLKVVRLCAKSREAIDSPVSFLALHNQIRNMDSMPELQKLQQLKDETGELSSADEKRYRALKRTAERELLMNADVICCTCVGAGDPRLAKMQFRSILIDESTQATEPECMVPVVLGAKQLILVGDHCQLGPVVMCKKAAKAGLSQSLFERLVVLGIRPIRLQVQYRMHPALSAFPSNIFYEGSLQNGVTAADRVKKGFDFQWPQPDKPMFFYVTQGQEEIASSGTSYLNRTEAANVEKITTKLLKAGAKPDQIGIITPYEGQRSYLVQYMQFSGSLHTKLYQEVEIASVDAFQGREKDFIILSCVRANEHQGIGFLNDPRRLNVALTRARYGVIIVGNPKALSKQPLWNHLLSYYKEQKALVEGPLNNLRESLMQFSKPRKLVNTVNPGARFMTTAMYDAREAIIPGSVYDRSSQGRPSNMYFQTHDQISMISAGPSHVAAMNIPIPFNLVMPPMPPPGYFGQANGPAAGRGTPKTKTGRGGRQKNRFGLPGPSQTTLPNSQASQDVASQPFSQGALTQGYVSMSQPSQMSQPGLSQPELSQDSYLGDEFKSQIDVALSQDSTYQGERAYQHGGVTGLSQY

What was measured:
Test in all cases: co-IP; endogenous proteins, N2A lysate (20 mM Tris-HCl pH 7.5, 150 mM NaCl, 1 % NP-40, 10 % glycerol), IP with antibodies against Atxn2, Fus or Tdp-43, protein A or G magnetic beads, immunoblot; IgG control
[1] = biological target: T1, endogenous Atxn2 (mouse (endogenous in N2A)) (UniProt O70305)
T1 sequence: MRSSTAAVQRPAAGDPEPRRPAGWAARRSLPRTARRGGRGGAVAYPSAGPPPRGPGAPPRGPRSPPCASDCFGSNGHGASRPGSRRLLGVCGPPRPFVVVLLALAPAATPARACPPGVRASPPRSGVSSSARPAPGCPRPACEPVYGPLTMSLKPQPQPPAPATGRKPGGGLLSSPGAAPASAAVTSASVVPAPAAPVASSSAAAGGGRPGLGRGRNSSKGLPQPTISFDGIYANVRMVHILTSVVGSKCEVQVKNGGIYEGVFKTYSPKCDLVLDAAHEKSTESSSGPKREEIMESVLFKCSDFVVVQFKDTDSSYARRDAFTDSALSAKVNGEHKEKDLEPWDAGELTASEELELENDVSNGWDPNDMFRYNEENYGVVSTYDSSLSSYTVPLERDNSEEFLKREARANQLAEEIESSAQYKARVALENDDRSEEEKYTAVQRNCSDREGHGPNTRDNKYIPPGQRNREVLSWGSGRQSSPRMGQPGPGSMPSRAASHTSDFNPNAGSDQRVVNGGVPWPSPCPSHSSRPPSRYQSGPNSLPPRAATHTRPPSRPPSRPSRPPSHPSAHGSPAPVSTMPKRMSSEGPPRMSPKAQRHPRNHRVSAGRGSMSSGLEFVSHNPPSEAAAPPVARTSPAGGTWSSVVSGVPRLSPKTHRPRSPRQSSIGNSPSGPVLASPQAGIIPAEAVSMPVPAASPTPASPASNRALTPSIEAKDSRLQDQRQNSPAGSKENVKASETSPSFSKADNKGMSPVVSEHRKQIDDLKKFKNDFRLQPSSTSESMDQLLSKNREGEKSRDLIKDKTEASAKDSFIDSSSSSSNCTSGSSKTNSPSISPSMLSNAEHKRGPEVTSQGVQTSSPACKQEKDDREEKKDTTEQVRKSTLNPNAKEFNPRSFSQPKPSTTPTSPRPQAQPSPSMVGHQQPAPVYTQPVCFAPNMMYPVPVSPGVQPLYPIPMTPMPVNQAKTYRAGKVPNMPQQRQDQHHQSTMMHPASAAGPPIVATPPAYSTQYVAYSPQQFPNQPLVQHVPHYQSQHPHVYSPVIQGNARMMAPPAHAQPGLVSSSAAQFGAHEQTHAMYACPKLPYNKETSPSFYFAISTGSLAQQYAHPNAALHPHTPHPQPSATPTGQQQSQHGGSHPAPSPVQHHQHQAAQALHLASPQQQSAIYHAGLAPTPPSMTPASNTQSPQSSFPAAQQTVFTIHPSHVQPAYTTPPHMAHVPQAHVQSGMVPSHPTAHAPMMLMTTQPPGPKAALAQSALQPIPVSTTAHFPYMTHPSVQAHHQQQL

[2] = biological target: endogenous Fus (mouse (endogenous in N2A, NSC-34, primary mouse cortical neurons)) (UniProt P56959)
[3] = biological target: endogenous Tdp-43 (mouse (endogenous in N2A)) (UniProt Q921F2)

Measured: binding

Dhx9 (from UniProt O70133 1-1380)
binds: all assays above

HuD (Elavl4) (from UniProt Q61701 1-385)
binds: all assays above

Pabpc4 (from UniProt Q6PHQ9 1-660)
binds: all assays above

Upf1 (from UniProt Q9EPU0 1-1124)
binds: all assays above
